Source: PMC9471085
Results are given in words; binding and its absence hold for the method and conditions named. In cells and extracts the contact can be indirect. Some entries that bind do so weakly or less than the wild type.

The chains behind the UniProt entries cited, without tags or fusion partners.
UniProt Q99836: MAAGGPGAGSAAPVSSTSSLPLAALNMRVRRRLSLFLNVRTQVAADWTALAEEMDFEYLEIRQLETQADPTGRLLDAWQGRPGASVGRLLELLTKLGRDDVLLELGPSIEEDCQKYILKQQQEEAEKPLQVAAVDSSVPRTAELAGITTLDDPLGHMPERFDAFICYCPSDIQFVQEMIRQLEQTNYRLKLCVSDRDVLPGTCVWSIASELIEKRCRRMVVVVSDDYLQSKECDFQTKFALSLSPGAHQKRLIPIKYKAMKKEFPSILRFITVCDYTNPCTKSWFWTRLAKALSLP
UniProt Q13489: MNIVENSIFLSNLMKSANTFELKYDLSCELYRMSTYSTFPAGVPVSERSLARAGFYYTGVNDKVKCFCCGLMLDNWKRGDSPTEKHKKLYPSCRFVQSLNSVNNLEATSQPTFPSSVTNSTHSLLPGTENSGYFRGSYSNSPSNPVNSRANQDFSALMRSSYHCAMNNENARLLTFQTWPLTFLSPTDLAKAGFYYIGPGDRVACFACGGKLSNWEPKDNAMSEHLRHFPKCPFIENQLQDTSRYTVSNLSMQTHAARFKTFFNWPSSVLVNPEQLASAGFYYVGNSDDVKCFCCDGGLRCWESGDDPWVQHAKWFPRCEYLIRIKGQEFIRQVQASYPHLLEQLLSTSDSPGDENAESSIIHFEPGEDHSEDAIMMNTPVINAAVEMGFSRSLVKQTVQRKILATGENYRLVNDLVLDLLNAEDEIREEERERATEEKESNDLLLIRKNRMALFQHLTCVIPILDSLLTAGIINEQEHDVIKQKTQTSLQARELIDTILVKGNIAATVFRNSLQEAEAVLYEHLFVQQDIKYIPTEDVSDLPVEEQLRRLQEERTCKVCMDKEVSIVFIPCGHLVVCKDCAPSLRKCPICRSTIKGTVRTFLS

Legend:
[1] = target: MyD88 (human (endogenous in MDA-MB-231)) (UniProt Q99836); test: co-IP; as a1, but immunoprecipitated with anti-MyD88 antibody with 10 μM of MyD88 inhibitor 4210
[2] = target: MyD88 (human (endogenous in MDA-MB-231)) (UniProt Q99836); test: co-IP; 300 μg of MDA-MB-231 lysate protein (M-PER lysis buffer with protease inhibitor; samples as in Figure 5B, LPS 100 ng/ml, 8 h) incubated overnight with 1 μg MyD88 polyclonal antibody, Protein A/G affinity gel at 4°C, three washes; blot with pan cIAP antibody

cIAP2 (from UniProt Q13489 1-604)
binding [1]: no binding (condition: with 10 μM of MyD88 inhibitor 4210) | binding [2]: binds
